Results reported in patent US7696233B2, “Method for controlling particular insect pests by applying anthranilamide compounds” (E. I. du Pont de Nemours and Company, priority 2001, dated 2010).
Some entries share one result that the patent states for a list of compounds.

Key:
Type in all cases: in vivo
[1] = system: beet armyworm (Spodoptera exigua); test: Test C: control of beet armyworm, foliar spray on corn; details: sprayed at 50 ppm, visually rated after 6 days
[2] = system: tobacco budworm (Heliothis virescens); test: Test B: control of tobacco budworm, foliar spray on cotton; details: sprayed at 50 ppm, visually rated after 6 days
[3] = system: fall armyworm (Spodoptera frugiperda); test: Test A: control of fall armyworm, foliar spray on corn; details: sprayed at 50 ppm, visually assessed after 6 days

Measured: feeding damage (excellent levels of plant protection)

CC(C)NC(=O)c1cc(Cl)cc(Cl)c1NC(=O)c1cc(OCC(F)(F)F)nn1-c1ncccc1Cl [Compound 702]
≤ 10%: all assays above

CNC(=O)c1cc(Cl)cc(Cl)c1NC(=O)c1cc(OCC(F)(F)F)nn1-c1ncccc1Cl [Compound 703]
≤ 10%: all assays above

CN(C)C(=O)c1cc(Cl)cc(Cl)c1NC(=O)c1cc(OCC(F)(F)F)nn1-c1ncccc1Cl [Compound 704]
≤ 10%: all assays above

CC(C)NC(=O)c1cc(Br)cc(Br)c1NC(=O)c1cc(OCC(F)(F)F)nn1-c1ncccc1Cl [Compound 705]
≤ 10%: all assays above

CNC(=O)c1cc(Br)cc(Br)c1NC(=O)c1cc(OCC(F)(F)F)nn1-c1ncccc1Cl [Compound 706]
≤ 10%: all assays above

CN(C)C(=O)c1cc(Br)cc(Br)c1NC(=O)c1cc(OCC(F)(F)F)nn1-c1ncccc1Cl [Compound 707]
≤ 10%: all assays above

CNC(=O)c1cc(Br)cc(Cl)c1NC(=O)c1cc(Br)nn1-c1ncccc1Cl [Compound 708]
≤ 10%: all assays above

CN(C)C(=O)c1cc(Br)cc(Cl)c1NC(=O)c1cc(Br)nn1-c1ncccc1Cl [Compound 709]
≤ 10%: all assays above

CNC(=O)c1cc(Br)cc(Cl)c1NC(=O)c1cc(Cl)nn1-c1ncccc1Cl [Compound 710]
≤ 10%: all assays above

CN(C)C(=O)c1cc(Br)cc(Cl)c1NC(=O)c1cc(Cl)nn1-c1ncccc1Cl [Compound 711]
≤ 10%: all assays above

CNC(=O)c1cc(Cl)cc(C)c1NC(=O)c1cc(OC(F)F)nn1-c1ncccc1Cl [Compound 719]
≤ 10%: all assays above

Cc1cc(Cl)cc(C(=O)NC(C)C)c1NC(=O)c1cc(OC(F)(F)Br)nn1-c1ncccc1Cl [Compound 720]
≤ 10%: all assays above

CNC(=O)c1cc(Cl)cc(C)c1NC(=O)c1cc(OC(F)(F)Br)nn1-c1ncccc1Cl [Compound 721]
≤ 10%: all assays above

Cc1cc(F)cc(C(=O)N(C)C)c1NC(=O)c1cc(Cl)nn1-c1ncccc1Cl [Compound 724]
≤ 10%: all assays above

CN(C)C(=O)c1cc(F)cc(Cl)c1NC(=O)c1cc(Br)nn1-c1ncccc1Cl [Compound 725]
≤ 10%: all assays above

CNC(=O)c1cc(F)cc(Cl)c1NC(=O)c1cc(Br)nn1-c1ncccc1Cl [Compound 726]
≤ 10%: all assays above

CC(C)NC(=O)c1cc(F)cc(Cl)c1NC(=O)c1cc(Br)nn1-c1ncccc1Cl [Compound 727]
≤ 10%: all assays above

CN(C)C(=O)c1cc(F)cc(Cl)c1NC(=O)c1cc(Cl)nn1-c1ncccc1Cl [Compound 728]
≤ 10%: all assays above

CNC(=O)c1cc(F)cc(Cl)c1NC(=O)c1cc(Cl)nn1-c1ncccc1Cl [Compound 729]
≤ 10%: all assays above

CC(C)NC(=O)c1cc(F)cc(Cl)c1NC(=O)c1cc(Cl)nn1-c1ncccc1Cl [Compound 730]
≤ 10%: all assays above

CN(C)C(=O)c1cc(F)cc(Cl)c1NC(=O)c1cc(C(F)(F)F)nn1-c1ncccc1Cl [Compound 731]
≤ 10%: all assays above

CNC(=O)c1cc(F)cc(Cl)c1NC(=O)c1cc(C(F)(F)F)nn1-c1ncccc1Cl [Compound 732]
≤ 10%: all assays above

CN(C)C(=O)c1cc(F)cc(Br)c1NC(=O)c1cc(Br)nn1-c1ncccc1Cl [Compound 733]
≤ 10%: all assays above

CNC(=O)c1cc(F)cc(Br)c1NC(=O)c1cc(Br)nn1-c1ncccc1Cl [Compound 734]
≤ 10%: all assays above

CC(C)NC(=O)c1cc(F)cc(Br)c1NC(=O)c1cc(Br)nn1-c1ncccc1Cl [Compound 735]
≤ 10%: all assays above

CN(C)C(=O)c1cc(F)c(Br)cc1NC(=O)c1cc(Cl)nn1-c1ncccc1Cl [Compound 736]
≤ 10%: all assays above

CNC(=O)c1cc(F)cc(Br)c1NC(=O)c1cc(Cl)nn1-c1ncccc1Cl [Compound 737]
≤ 10%: all assays above

CC(C)NC(=O)c1cc(F)cc(Br)c1NC(=O)c1cc(Cl)nn1-c1ncccc1Cl [Compound 738]
≤ 10%: all assays above

Cc1cc(Cl)cc(C(=O)NC(C)C)c1NC(=O)c1cc(OC(C)C)nn1-c1ncccc1Cl [Compound 739]
≤ 10%: all assays above

CNC(=O)c1cc(Cl)cc(C)c1NC(=O)c1cc(OC(C)C)nn1-c1ncccc1Cl [Compound 740]
≤ 10%: all assays above

CNC(=O)c1cc(Cl)cc(Cl)c1NC(=O)c1cc(OC(C)C)nn1-c1ncccc1Cl [Compound 742]
≤ 10%: all assays above

CN(C)C(=O)c1cc(F)cc(Br)c1NC(=O)c1cc(C(F)(F)F)nn1-c1ncccc1Cl [Compound 743]
≤ 10%: all assays above

CC(C)NC(=O)c1cc(F)cc(Br)c1NC(=O)c1cc(C(F)(F)F)nn1-c1ncccc1Cl [Compound 745]
≤ 10%: all assays above

CN(C)C(=O)c1cc(Cl)cc(Br)c1NC(=O)c1cc(Br)nn1-c1ncccc1Cl [Compound 746]
≤ 10%: all assays above

CNC(=O)c1cc(Cl)cc(Br)c1NC(=O)c1cc(Br)nn1-c1ncccc1Cl [Compound 747]
≤ 10%: all assays above

CC(C)NC(=O)c1cc(Cl)cc(Br)c1NC(=O)c1cc(Br)nn1-c1ncccc1Cl [Compound 748]
≤ 10%: all assays above

CN(C)C(=O)c1cc(Cl)cc(Br)c1NC(=O)c1cc(Cl)nn1-c1ncccc1Cl [Compound 749]
≤ 10%: all assays above

CNC(=O)c1cc(Cl)cc(Br)c1NC(=O)c1cc(Cl)nn1-c1ncccc1Cl [Compound 750]
≤ 10%: all assays above

CC(C)NC(=O)c1cc(Cl)cc(Br)c1NC(=O)c1cc(Cl)nn1-c1ncccc1Cl [Compound 751]
≤ 10%: all assays above

CN(C)C(=O)c1cc(Cl)cc(Br)c1NC(=O)c1cc(C(F)(F)F)nn1-c1ncccc1Cl [Compound 752]
≤ 10%: all assays above
